# The other results are listed elsewhere or left out.
# Key:
# Assay in all cases: glycan array binding signal (z-score within array); higher = stronger binding
# Conditions in all cases: glycan notation: IUPAC condensed, linker removed
# [1] = target: Gal(a1-3)Gal(b1-3)GlcNAc(b1-3)GalNAc
# Summary of the method: (§1)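 The Consortium for Functional Glycomics database supplied 3228 glycan arrays, of which those lacking an available protein sequence were dropped. The binding signal, a within-array Z-score, was averaged across arrays of the same protein sequence and across linkers. Negative scores can be read as non-binding.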
# [2] = target: Gal(a1-3)Gal(b1-3)GlcNAc(b1-6)GalNAc
# Summary of the method: as §1
# [3] = target: Gal(a1-3)Gal(b1-3)[Fuc(a1-4)]GlcNAc(b1-2)Man(a1-3)[Gal(a1-3)Gal(b1-3)[Fuc(a1-4)]GlcNAc(b1-2)Man(a1-6)]Man(b1-4)GlcNAc(b1-4)GlcNAc
# Summary of the method: as §1
# Gal(a1-3)Gal(b1-4)Glc = target: Gal(a1-3)Gal(b1-4)Glc
# Summary of the method: as §1
# Gal(a1-3)Gal(b1-4)GlcNAc = target: Gal(a1-3)Gal(b1-4)GlcNAc
# Summary of the method: as §1
# [4] = target: Gal(a1-3)Gal(b1-4)GlcNAc(b1-2)Man
# Summary of the method: as §1
# [5] = target: Gal(a1-3)Gal(b1-4)GlcNAc(b1-2)Man(a1-3)[Gal(a1-3)Gal(b1-4)GlcNAc(b1-2)Man(a1-6)]Man(b1-4)GlcNAc(b1-4)GlcNAc
# Summary of the method: as §1
# [6] = target: Gal(a1-3)Gal(b1-4)GlcNAc(b1-3)GalNAc
# Summary of the method: as §1
# [7] = target: Gal(a1-3)Gal(b1-4)GlcNAc(b1-6)GalNAc
# Summary of the method: as §1
# [8] = target: Gal(a1-3)Gal(b1-4)[Fuc(a1-3)]GlcNAc
# Summary of the method: as §1
# [9] = target: Gal(a1-3)Gal(b1-4)[Fuc(a1-3)]GlcNAc(b1-2)Man(a1-3)[Gal(a1-3)Gal(b1-4)[Fuc(a1-3)]GlcNAc(b1-2)Man(a1-6)]Man(b1-4)GlcNAc(b1-4)GlcNAc
# Summary of the method: as §1
# Gal(a1-3)GalNAc = target: Gal(a1-3)GalNAc
# Summary of the method: as §1
# [10] = target: Gal(a1-3)[Gal(a1-4)]Gal(b1-4)GlcNAc
# Summary of the method: as §1
# [11] = target: Gal(a1-4)Gal(b1-3)GlcNAc(b1-2)Man(a1-3)[Gal(a1-4)Gal(b1-3)GlcNAc(b1-2)Man(a1-6)]Man(b1-4)GlcNAc(b1-4)GlcNAc
# Summary of the method: as §1
# Gal(a1-4)Gal(b1-4)Glc = target: Gal(a1-4)Gal(b1-4)Glc
# Summary of the method: as §1
# Gal(a1-4)Gal(b1-4)GlcNAc = target: Gal(a1-4)Gal(b1-4)GlcNAc
# Summary of the method: as §1
# [12] = target: Gal(a1-4)Gal(b1-4)GlcNAc(b1-2)Man(a1-3)[Gal(a1-4)Gal(b1-4)GlcNAc(b1-2)Man(a1-6)]Man(b1-4)GlcNAc(b1-4)GlcNAc
# Summary of the method: as §1
# [13] = target: Gal(a1-4)Gal(b1-4)GlcNAc(b1-3)Gal(b1-4)Glc
# Summary of the method: as §1
# Gal(a1-4)GlcNAc = target: Gal(a1-4)GlcNAc
# Summary of the method: as §1
# Gal(a1-6)Glc = target: Gal(a1-6)Glc
# Summary of the method: as §1
# Gal(b1-2)Gal = target: Gal(b1-2)Gal
# Summary of the method: as §1
# Gal(b1-3)Gal = target: Gal(b1-3)Gal
# Summary of the method: as §1
# Gal(b1-3)Gal(b1-4)GlcNAc = target: Gal(b1-3)Gal(b1-4)GlcNAc
# Summary of the method: as §1
# [14] = target: Gal(b1-3)Gal(b1-4)GlcNAc(b1-2)Man(a1-3)[Gal(b1-3)Gal(b1-4)GlcNAc(b1-2)Man(a1-6)]Man(b1-4)GlcNAc(b1-4)GlcNAc
# Summary of the method: as §1
# Gal(b1-3)GalNAc = target: Gal(b1-3)GalNAc
# Summary of the method: as §1
# [15] = target: Gal(b1-3)GalNAc(a1-3)[Fuc(a1-2)]Gal(b1-4)Glc
# Summary of the method: as §1
# [16] = target: Gal(b1-3)GalNAc(a1-3)[Fuc(a1-2)]Gal(b1-4)GlcNAc
# Summary of the method: as §1
# Gal(b1-3)GalNAc(b1-3)Gal = target: Gal(b1-3)GalNAc(b1-3)Gal
# Summary of the method: as §1
# [17] = target: Gal(b1-3)GalNAc(b1-3)Gal(a1-4)Gal(b1-4)Glc
# Summary of the method: as §1
# [18] = target: Gal(b1-3)GalNAc(b1-4)Gal(b1-4)Glc
# Summary of the method: as §1
# [19] = target: Gal(b1-3)GalNAc(b1-4)[Neu5Ac(a2-3)]Gal(b1-4)Glc
# Summary of the method: as §1
# Gal(b1-3)GlcNAc = target: Gal(b1-3)GlcNAc
# Summary of the method: as §1
# [20] = target: Gal(b1-3)GlcNAc(a1-3)Gal(b1-4)GlcNAc
# Summary of the method: as §1
# [21] = target: Gal(b1-3)GlcNAc(a1-6)Gal(b1-4)GlcNAc
# Summary of the method: as §1
# Gal(b1-3)GlcNAc(b1-2)Man = target: Gal(b1-3)GlcNAc(b1-2)Man
# Summary of the method: as §1
# [22] = target: Gal(b1-3)GlcNAc(b1-2)Man(a1-3)[Gal(b1-3)GlcNAc(b1-2)Man(a1-6)]Man(b1-4)GlcNAc(b1-4)GlcNAc
# Summary of the method: as §1
# [23] = target: Gal(b1-3)GlcNAc(b1-2)Man(a1-3)[Gal(b1-3)GlcNAc(b1-2)Man(a1-6)]Man(b1-4)GlcNAc(b1-4)[Fuc(a1-6)]GlcNAc
# Summary of the method: as §1
binder,measurement,setting,value
"Gal 12 (Homo sapiens), Q96DT0 (protein) MSQPSGGRAPGTRIYSWSCPTVMSPGEKLDPIPDSFILQPPVFHPVVPYVTTIFGGLHAGKMVMLQGVVPLDAHRFQVDFQCGCSLCPRPDIAFHFNPRFHTTKPHVICNTLHGGRWQREARWPHLALRRGSSFLILFLFGNEEVKVSVNGQHFLHFRYRLPLSHVDTLGIFGDILVEAVGFLNINPFVEGSREYPAGHPFLLMSPRLEVPCSHALPQGLSPGQVIIVRGLVLQEPKHFTVSLRDQAAHAPVTLRASFADRTLAWISRWGQKKLISAPFLFYPQRFFEVLLLFQEGGLKLALNGQGLGATSMNQQALEQLRELRISGSVQLYCVHS",glycan array binding signal (z-score),[1],-0.275
same,glycan array binding signal (z-score),[2],-0.189
same,glycan array binding signal (z-score),[3],-0.493
same,glycan array binding signal (z-score),Gal(a1-3)Gal(b1-4)Glc,-0.527
same,glycan array binding signal (z-score),Gal(a1-3)Gal(b1-4)GlcNAc,0.262
same,glycan array binding signal (z-score),[4],-0.434
same,glycan array binding signal (z-score),[5],-1.25
same,glycan array binding signal (z-score),[6],-0.345
same,glycan array binding signal (z-score),[7],-0.68
same,glycan array binding signal (z-score),[8],-0.247
same,glycan array binding signal (z-score),[9],0.735
same,glycan array binding signal (z-score),Gal(a1-3)GalNAc,0.351
same,glycan array binding signal (z-score),[10],1.74
same,glycan array binding signal (z-score),[11],-0.552
same,glycan array binding signal (z-score),Gal(a1-4)Gal(b1-4)Glc,1.26
same,glycan array binding signal (z-score),Gal(a1-4)Gal(b1-4)GlcNAc,-0.049
same,glycan array binding signal (z-score),[12],-0.524
same,glycan array binding signal (z-score),[13],-0.464
same,glycan array binding signal (z-score),Gal(a1-4)GlcNAc,-0.61
same,glycan array binding signal (z-score),Gal(a1-6)Glc,-0.527
same,glycan array binding signal (z-score),Gal(b1-2)Gal,1.35
same,glycan array binding signal (z-score),Gal(b1-3)Gal,-0.751
same,glycan array binding signal (z-score),Gal(b1-3)Gal(b1-4)GlcNAc,-0.117
same,glycan array binding signal (z-score),[14],-0.507
same,glycan array binding signal (z-score),Gal(b1-3)GalNAc,-0.168
same,glycan array binding signal (z-score),[15],-0.173
same,glycan array binding signal (z-score),[16],-0.072
same,glycan array binding signal (z-score),Gal(b1-3)GalNAc(b1-3)Gal,-1.05
same,glycan array binding signal (z-score),[17],-0.445
same,glycan array binding signal (z-score),[18],-0.018
same,glycan array binding signal (z-score),[19],-0.439
same,glycan array binding signal (z-score),Gal(b1-3)GlcNAc,-0.052
same,glycan array binding signal (z-score),[20],-0.325
same,glycan array binding signal (z-score),[21],-0.349
same,glycan array binding signal (z-score),Gal(b1-3)GlcNAc(b1-2)Man,1.39
same,glycan array binding signal (z-score),[22],0.94
same,glycan array binding signal (z-score),[23],-0.24

# Laid out differently: results already given.
binder | measurement | setting | value
Gal 12 (Homo sapiens), Q96DT0 (protein) MSQPSGGRAPGTRIYSWSCPTVMSPGEKLDPIPDSFILQPPVFHPVVPYVTTIFGGLHAGKMVMLQGVVPLDAHRFQVDFQCGCSLCPRPDIAFHFNPRFHTTKPHVICNTLHGGRWQREARWPHLALRRGSSFLILFLFGNEEVKVSVNGQHFLHFRYRLPLSHVDTLGIFGDILVEAVGFLNINPFVEGSREYPAGHPFLLMSPRLEVPCSHALPQGLSPGQVIIVRGLVLQEPKHFTVSLRDQAAHAPVTLRASFADRTLAWISRWGQKKLISAPFLFYPQRFFEVLLLFQEGGLKLALNGQGLGATSMNQQALEQLRELRISGSVQLYCVHS | glycan array binding signal (z-score) | [19] | -0.439
same | glycan array binding signal (z-score) | Gal(b1-3)GlcNAc | -0.052

# Reference: the supplement of paper PMC8728848
